# Experimental data from paper PMC5996148.
# Where “and” joins values, the source holds several entries; their conditions need not be identical. Identical values can stand only once. This is one part of the list.
# What was measured:
# Test in all cases: protein microarray (ProtoArray v5.0), streptavidin-Alexa Fluor 647
# Settings in all cases: 3'-biotin; 20 mM Tris (pH 7.5), 5 mM MgCl2, 100 mM KCl, 0.1% Tween-20, A/T-rich and random oligonucleotide blockers; temperature not stated; high values mean tight binding
# MX1 (human) = test system: MX1 (human)
# MXD1 (human) = test system: MXD1 (human)
# MYCBP (human) = test system: MYCBP (human)
# MYL1 (human) = test system: MYL1 (human)
# MYLC2PL (human) = test system: MYLC2PL (human)
# MYO1D (human) = test system: MYO1D (human)
# Magmas (human) = test system: Magmas (human)
# [1] = test system: Malate dehydrogenase, cytoplasmic (human)
# Malcavernin (human) = test system: Malcavernin (human)
# Mammaglobin-A (human) = test system: Mammaglobin-A (human)
# [2] = test system: Mannose-6-phosphate receptor-binding protein 1 (human)
# [3] = test system: Mediator of RNA polymerase II transcription subunit 22 (human)
# [4] = test system: Mediator of RNA polymerase II transcription subunit 23 (human)
# [5] = test system: Mediator of RNA polymerase II transcription subunit 4 (human)
# [6] = test system: Melanocortin-2 receptor accessory protein (human)
# [7] = test system: Melanoma-associated antigen 3 (human)
# Melanoregulin (human) = test system: Melanoregulin (human)
# [8] = test system: Membrane-associated progesterone receptor component 2 (human)
# [9] = test system: Mesoderm induction early response protein 2 (human)
# [10] = test system: Metal transporter CNNM3 (human)
sequence,measurement,setting,value
GGGAGGCTGAGGCAGG [G4-1 biotinylated (PQS2)],binding signal,MX1 (human),-0.342 z-score
same,binding signal,MXD1 (human),-0.304 z-score
same,binding signal,MYCBP (human),-0.351 z-score
same,binding signal,MYL1 (human),-0.311 z-score
same,binding signal,MYLC2PL (human),-0.309 z-score
same,binding signal,MYO1D (human),-0.246 z-score
same,binding signal,Magmas (human),-0.303 z-score
same,binding signal,[1],-0.317 z-score
same,binding signal,Malcavernin (human),-0.35 z-score
same,binding signal,Mammaglobin-A (human),-0.357 z-score
same,binding signal,[2],-0.377 z-score
same,binding signal,[3],-0.359 z-score
same,binding signal,[4],-0.292 z-score
same,binding signal,[5],-0.325 z-score
same,binding signal,[6],-0.352 z-score
same,binding signal,[7],-0.37 z-score
same,binding signal,Melanoregulin (human),-0.343 z-score and -0.336 z-score
same,binding signal,[8],-0.33 z-score
same,binding signal,[9],-0.316 z-score
same,binding signal,[10],-0.327 z-score
